Source: patent US20060205669A1 (The Regents of the University of California, priority 2004, published 2006)
*: point of attachment. Fmoc = O=C(OCC1c2ccccc2-c2ccccc21)*; Boc = CC(C)(C)OC(=O)*; OtBu = CC(C)(C)O*; tBu = CC(C)(C)*

Tests used:
[1] = general procedure: Fmoc solid-phase peptide synthesis; Cl-TrT-Resin; HBTU/HOBT; DIC/HOBT; settings: whole synthesis, scale 5 mmol
[2] = general procedure: Fmoc solid-phase peptide synthesis; Rink Amide; HBTU/HOBT; DIC/HOBT; settings: whole synthesis, scale 1 mmole
peptide synthesis = settings: coupling step

Ac-D(OtBu)WFK(Boc)AF-OH
crude yield [1]: 32%

Ac-DWFKAFYDKVAEKFKEAF-NH2
crude yield ([2]; run 1): 86% | isolated yield ([2]; run 1): 25% | crude yield ([2]; run 2): 86% | isolated yield ([2]; run 2): 22.5% | crude yield ([2]; run 3): 43% | isolated yield ([2]; run 3): 10%

Fmoc-Y(But)-D(But)-K(Boc)-V-A-E(But)-K(Boc)-F-K(Boc)-E(But)-F-Co-NH2
step yield (peptide synthesis): Yield was 50%

Fmoc-Y(tBu)D(OtBu)K(Boc)VAE(OtBu)-OH
crude yield [1]: 36%
